Measurements published in US11142515B2, “Pyrazolyl-ureas as kinase inhibitors” (RESPIVERT LIMITED, priority 2014, dated 2021).
The structures given here were assigned with low confidence; some may be wrong.

By UniProt entry, the sequences of proteins in these tests, tags left out.
UniProt P53778, whole entry: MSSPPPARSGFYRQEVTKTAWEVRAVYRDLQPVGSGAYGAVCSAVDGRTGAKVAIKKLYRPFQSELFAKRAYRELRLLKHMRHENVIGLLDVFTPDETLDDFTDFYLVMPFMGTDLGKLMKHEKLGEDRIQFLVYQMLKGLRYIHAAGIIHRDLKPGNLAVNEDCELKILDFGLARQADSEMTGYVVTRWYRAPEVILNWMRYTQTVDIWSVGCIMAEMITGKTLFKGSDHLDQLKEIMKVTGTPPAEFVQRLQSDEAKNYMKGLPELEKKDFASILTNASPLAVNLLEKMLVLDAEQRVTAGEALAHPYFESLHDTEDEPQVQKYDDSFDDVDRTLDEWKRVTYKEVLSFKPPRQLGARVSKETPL
UniProt Q16539, whole entry: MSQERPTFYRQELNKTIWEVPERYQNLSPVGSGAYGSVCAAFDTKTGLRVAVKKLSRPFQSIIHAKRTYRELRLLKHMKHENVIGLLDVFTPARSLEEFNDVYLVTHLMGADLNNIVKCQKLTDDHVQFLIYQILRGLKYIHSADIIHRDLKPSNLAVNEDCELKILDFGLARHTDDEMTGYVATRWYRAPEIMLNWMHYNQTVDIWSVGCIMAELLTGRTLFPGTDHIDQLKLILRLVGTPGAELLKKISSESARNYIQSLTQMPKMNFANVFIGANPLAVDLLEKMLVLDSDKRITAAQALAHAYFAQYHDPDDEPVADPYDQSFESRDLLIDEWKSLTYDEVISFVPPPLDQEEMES

Key:
p38MAPKγ (MAPK12) = p38MAPKγ (MAPK12) (Homo sapiens, UniProt P53778); assay: p38 MAPKγ enzyme inhibition (Z-LYTE FRET); format: biochemical; conditions: read-out: p38 MAPKγ (Enzyme Profile); Table 2B, unit inferred
[1] = target: p38 MAPKα isoform (MAPK14) (Homo sapiens, UniProt Q16539); assay: p38 MAPKα enzyme inhibition (Z-LYTE FRET); format: biochemical; conditions: read-out: p38 MAPKα (Enzyme Profile); Table 2B, unit inferred

## Cc1ccc(-n2nc(C(C)(C)C)cc2NC(=O)Nc2ccc(OCc3ccnc(Nc4cnc(C(=O)N5CCCC5)cn4)c3)c3ccccc23)cc1 [Example 36]
p38MAPKγ (MAPK12)
  IC50: 3120 nM
[1]
  IC50: 23 nM
